From paper PMC9666630 come the findings set out here.

No constants are given. Whether binding was seen depends on the method and setting. In cells and extracts the contact can be indirect. Some binding calls cover weakened binding; strength is not graded here. Tags and fused reporters may be left off the sequences shown.

The target of this experiment is T1, HIRA-3xHA (pHIRA::HIRA-3xHA complementing line) (Arabidopsis thaliana) (UniProt Q9LXN4).
T1 sequence: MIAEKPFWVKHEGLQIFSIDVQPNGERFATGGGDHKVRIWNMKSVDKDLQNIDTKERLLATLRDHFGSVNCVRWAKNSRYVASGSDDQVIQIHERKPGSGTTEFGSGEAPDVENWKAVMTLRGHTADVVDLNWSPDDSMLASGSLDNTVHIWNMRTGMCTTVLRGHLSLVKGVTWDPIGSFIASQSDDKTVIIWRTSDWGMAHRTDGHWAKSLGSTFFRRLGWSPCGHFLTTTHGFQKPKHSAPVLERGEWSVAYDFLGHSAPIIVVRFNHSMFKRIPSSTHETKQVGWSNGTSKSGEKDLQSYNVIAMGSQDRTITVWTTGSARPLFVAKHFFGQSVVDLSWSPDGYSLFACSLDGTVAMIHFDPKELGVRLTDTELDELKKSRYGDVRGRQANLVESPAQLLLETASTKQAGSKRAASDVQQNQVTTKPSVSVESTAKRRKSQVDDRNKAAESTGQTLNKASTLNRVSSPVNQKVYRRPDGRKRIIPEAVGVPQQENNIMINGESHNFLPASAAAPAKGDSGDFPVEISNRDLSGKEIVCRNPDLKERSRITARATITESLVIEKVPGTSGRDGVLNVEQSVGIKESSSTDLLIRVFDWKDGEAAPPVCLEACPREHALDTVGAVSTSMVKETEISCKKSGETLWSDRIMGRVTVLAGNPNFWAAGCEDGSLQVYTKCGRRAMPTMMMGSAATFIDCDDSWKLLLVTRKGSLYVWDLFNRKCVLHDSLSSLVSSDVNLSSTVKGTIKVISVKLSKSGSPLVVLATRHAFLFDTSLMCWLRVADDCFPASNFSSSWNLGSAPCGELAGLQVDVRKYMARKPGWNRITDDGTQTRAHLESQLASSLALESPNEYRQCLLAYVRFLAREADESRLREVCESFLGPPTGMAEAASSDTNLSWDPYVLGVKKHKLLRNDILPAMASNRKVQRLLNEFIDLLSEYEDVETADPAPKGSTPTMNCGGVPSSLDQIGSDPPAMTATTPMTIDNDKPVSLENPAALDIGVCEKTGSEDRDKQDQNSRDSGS
Put plainly: co-IP; 2 g young inflorescence tissue; anti-HA antibodies coupled to magnetic beads (HIRA-3xHA line); western blot with HRP anti-Myc tag antibody. (A western blot detects proteins with antibodies after separation by electrophoresis.)

B1: ASF1B-9xMyc-BLRP (pASF1B::ASF1B-9xMyc-BLRP complementing line) (protein, UniProt Q9LS09 1-218)
chain: MSSINITNVTVLDNPAPFVNPFQFEISYECLTSLKDDLEWKLIYVGSAEDETYDQVLESVLVGPVNVGNYRFVLQADSPDPLKIREEDIIGVTVLLLTCSYMDQEFIRVGYYVNNDYDDEQLREEPPTKVLIDKVQRNILTDKPRVTKFPINFHPENEQTLGDGPAPTEPFADSVVNGEAPVFLEQPQKLQEIEQFDDSDVNGEAIALLDQPQNLQET
As to B1, the binding result is recorded as “binds”.

B2: ASF1A-9xMyc (complementing line) (protein, UniProt Q9C9M6 1-196)
chain: MSAIKITNVAVLHNPAPFVSPFQFEISYECLNSLKDDLEWKLIYVGSAEDETYDQLLESVLVGPVNVGNYRFVFQADPPDPSKIQEEDIIGVTVLLLTCSYMGQEFLRVGYYVNNDYEDEQLKEEPPTKVLIDKVQRNILSDKPRVTKFPIDFHPEEEQTAATAAPPEQSDEQQPNVNGEAQVLPDQSVEPKPEES
For the molecule B2, the binding result is “binds”.
